Measurements published in paper PMC5816610.

By UniProt entry, the sequences of proteins in these tests, tags left out. Where a name states a change or a piece, a line headed by the entry shows the natural chain unless it says otherwise.
UniProt P0ACJ8: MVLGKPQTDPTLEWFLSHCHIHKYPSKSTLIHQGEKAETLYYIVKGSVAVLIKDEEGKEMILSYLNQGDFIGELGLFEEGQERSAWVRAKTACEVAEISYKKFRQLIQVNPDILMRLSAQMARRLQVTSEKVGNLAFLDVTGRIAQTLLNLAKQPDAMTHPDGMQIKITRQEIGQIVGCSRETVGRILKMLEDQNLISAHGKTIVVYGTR

Molecular target: CRP (purified) (UniProt P0ACJ8)
Assay: EMSA
Conditions: 37 C, 1 pmol DNA, 10 min then 30 min with protein, 5% PAGE in 1xTBE, purified CRP +/-200 uM cAMP, recombinant protein, residues 1-210, protein details: pET28b NdeI/Bpu1102 insert, called native CRP, probe letters rebuilt from the primers and the genome; for binding signal (fold vs no cAMP): 200 uM cAMP; for binding result: no cAMP

Row | Sequence | binding signal (fold vs no cAMP) | binding result
1 | GCGATCAGCATGAGGAGTTGGTCGTGCCGCGGGTTACCGGTTAGTTCGGTAAGGCTCATGAAAATTCCTCGAAAAACCATCACCCTGGCATTTTATACAAAAAGTGACAAAAAAGATCGGGTTTGATCACAGTCAGGGATCCCGGCTCGTCCACCGGGACGTGTGCATTTTAACGCCGCTACACCGCTGGCGAAGCGGACTGACTCCGCTAAATCCCCACTTGTTGCCAGCGCCACCGCCAAAGCGCCGTGAAAAACATCACCCGCACCTGTGGTATCTACCACATCAACTTTGAAGGCCGGTTGA (double strand) [yihV/W intergenic region] | 1.3 | binds
2 | GTCGGTAACCCTTCCACGTAATAGATGCGATCCATCACGGTTATACCTACACAAGCAACACGAATCATGGTCATTCCTTAAACATTTTGGGATGCGTTCATTTTAATTTCACCAATTGTTTAAAAAGTGACGGCTGTCAATTTTTTGACGATAAATTACAAATACGATCAAAAACAGACAAGCAAAGCATGTCATAAATGACAAAAAGTGACATAACTGTATTCAGGAGAGGGTTATGGCAGCAATCGCGTTTATCGGTTTAGGACAAATGGGTTCGCCAATGGCGAGCAATTTATTGCAGCAAGGGCATCAACTTCGCGTCTTTGATGTGAACG (double strand) [yihU/V intergenic region] | 1.3 | binds

The direction of at least one scale is not stated here.
